# From PubChem BioAssay AID504847 (National Center for Advancing Translational Sciences (NCATS), 2011)
# The chains behind the UniProt entries cited, without tags or fusion partners. Where a name states a change or a piece, a line headed by the entry shows the natural chain unless it says otherwise.
# UniProt P11473: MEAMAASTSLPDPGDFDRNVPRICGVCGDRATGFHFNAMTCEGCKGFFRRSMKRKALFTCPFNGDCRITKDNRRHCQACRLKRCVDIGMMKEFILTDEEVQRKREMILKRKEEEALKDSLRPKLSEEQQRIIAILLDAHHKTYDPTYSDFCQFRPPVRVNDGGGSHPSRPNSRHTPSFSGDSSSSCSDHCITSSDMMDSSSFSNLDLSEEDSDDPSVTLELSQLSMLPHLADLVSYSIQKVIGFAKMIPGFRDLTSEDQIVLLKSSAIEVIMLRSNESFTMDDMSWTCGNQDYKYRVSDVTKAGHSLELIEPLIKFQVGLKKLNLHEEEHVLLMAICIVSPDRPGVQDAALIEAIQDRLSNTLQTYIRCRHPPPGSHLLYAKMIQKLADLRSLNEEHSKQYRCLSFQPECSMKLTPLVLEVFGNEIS
# The whole screen tested about 400,000 compounds, of which about 3,700 (0.93%) were called active. The inconclusive results got no clear call from the source; some entries with a clear call stand among them for comparison. Calls come from the whole dose curve; as a rule, active = well fitted inhibition curve with a large enough effect; inconclusive = small, poorly fitted or top-dose-only effect, or another doubt; inactive = no such curve, though single readings can be large or run the other way. Potencies of inconclusive entries are doubtful fits and often do not repeat.
# Biological target: Vitamin D3 receptor (Homo sapiens) (UniProt P11473)
# Test: Inhibitors of the vitamin D receptor (VDR): qHTS
# Conditions: VDR-SRC2-3 peptide fluorescence polarization, 2 h; max response, negative = inhibition: stronger effect = lower value
# Procedure, shortened: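 The screen uses fluorescence polarization to detect compounds that interfere with recruitment of the SRC2-3 coactivator peptide to VDR; plates are read after 2 h at room temperature.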
# % is set by controls: 0 for no effect and ±100 for the full control effect; potency is the fitted concentration of half-maximal effect.
SMILES,"max response, negative = inhibition",Potency
CCN(C(=O)c1ccc(Cl)cc1[N+](=O)[O-])c1ccccc1C,inactive: 17.5%,–
COc1ccc(C2CC(=O)Nc3c2c(=O)[nH]c2nc4ccccc4n32)cc1 (stereo not given),inactive: -4.02%,–
COc1ccc(Cc2nn3c(Cn4nnc5ccccc54)nnc3s2)cc1,–,"inconclusive: 89.1 µM [inhibitor, single point]"
Cc1cc(=O)oc2cc(O[C@@H]3O[C@H](C(=O)O)[C@@H](O)[C@H](O)[C@H]3O)ccc12,inactive: -7.45%,–
CCOC(=O)Cc1csc(NC(=S)NC(=O)C(C)(C)C)n1,–,"inconclusive: 89.1 µM [inhibitor, single point]"
COc1cc(C(C2=C(O)CC(C)(C)CC2=O)C2C(=O)CC(C)(C)CC2=O)cc(OC)c1OC (stereo not given),–,"inconclusive: 50.1 µM [inhibitor, partial curve, poor fit]"
O=c1c2cccc(Cl)c2nc2n1Cc1ccccc1-2,–,active: 79.4 µM
CC(C)=CCC1=C(OCC(=O)O)C(=O)c2ccccc2C1=O,–,"inconclusive: 63.1 µM [inhibitor, partial curve, poor fit]"
CSCC[C@H](NC(=O)c1ccc(Br)o1)c1nnc2ccccn12,–,"inconclusive: 39.8 µM [inhibitor, single point]"
Cc1ccc(S(=O)(=O)c2ccc([N+](=O)[O-])cn2)cc1,–,active: 25.1 µM
Cc1ccc(CNC(=O)c2cc3c(=O)n(Cc4ccco4)ccc3nc2C)cc1,inactive: 2.34%,–
O=c1c2cc(Cl)ccc2[nH]c(=S)n1Cc1cccs1,–,"inconclusive: 79.4 µM [inhibitor, partial curve, poor fit]"
Cc1ccc(C(=O)N2C(=S)C(c3ccc(F)cc3)=NC23CCN(C)CC3)cc1,–,"inconclusive: 56.2 µM [inhibitor, partial curve, poor fit]"
O=C1C=CC2=C3c4cc(O)c(O)cc4C[C@]3(O)COC2=C1,–,active: 11.2 µM
Cc1ccc(Nc2nc(N)c([N+](=O)[O-])c(NCCO)n2)cc1,inactive: 1.83%,–
C/C(=N\NC(=O)c1ccccc1)c1ccc(-n2ccnc2)cc1,inactive: 3.7%,–
COCCCn1cn[nH]c1=S,–,"inconclusive: 1.78 µM [inhibitor, single point]"
COc1ccc(-c2nc(CS(=O)(=O)CC(=O)NCc3ccccc3Br)c(C)o2)cc1,–,"inconclusive: 100 µM [inhibitor, single point]"
COc1ccc(C(=O)CCN2CCN(c3ccc(OC)cc3)CC2)cc1,–,"inconclusive: 89.1 µM [inhibitor, single point]"
CC(=O)Nc1ccc(OCC(O)CNC2CCCC2)cc1 (stereo not given),–,"inconclusive: 50.1 µM [inhibitor, single point]"

# Five successive records from above, quoted:
SMILES,"max response, negative = inhibition",Potency
COc1cc(C(C2=C(O)CC(C)(C)CC2=O)C2C(=O)CC(C)(C)CC2=O)cc(OC)c1OC (stereo not given),–,"inconclusive: 50.1 µM [inhibitor, partial curve, poor fit]"
O=c1c2cccc(Cl)c2nc2n1Cc1ccccc1-2,–,active: 79.4 µM
CC(C)=CCC1=C(OCC(=O)O)C(=O)c2ccccc2C1=O,–,"inconclusive: 63.1 µM [inhibitor, partial curve, poor fit]"
CSCC[C@H](NC(=O)c1ccc(Br)o1)c1nnc2ccccn12,–,"inconclusive: 39.8 µM [inhibitor, single point]"
Cc1ccc(S(=O)(=O)c2ccc([N+](=O)[O-])cn2)cc1,–,active: 25.1 µM
